Measured values from PMC3959648.
For some assays here: Weaker means in comparison with the reference protein, sequence or condition of that experiment. For some assays here: Where a protein sequence is shown, tags need not be part of it. The exact form of at least one protein or probe is not confirmed. At least one verdict was read from the data and is not stated in words by the source.

Protein sequences, listed by entry. Tags and fused reporters are not part of them. Residues count along the entry.
UniProt Q07666, 150-260: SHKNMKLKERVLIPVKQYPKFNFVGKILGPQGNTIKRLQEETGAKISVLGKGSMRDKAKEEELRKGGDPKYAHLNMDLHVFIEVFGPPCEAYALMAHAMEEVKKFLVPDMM

Tests used:
T-STAR KH = biological target: T1, T-STAR KH (UniProt O75525); experiment: NMR 15N-1H HSQC CSP; settings: T-STAR KH: 10 mM Tris-HCl pH 7 (also given as pH 6.5, 50 mM NaCl, 30 C), Sam68 KH: 20 mM sodium phosphate pH 7.0, 50 mM NaCl, 20 C, about 0.2 mM protein, recombinant protein, residues 50-160, protein details: N-terminal His tag removed by TEV
T1 sequence (looked up): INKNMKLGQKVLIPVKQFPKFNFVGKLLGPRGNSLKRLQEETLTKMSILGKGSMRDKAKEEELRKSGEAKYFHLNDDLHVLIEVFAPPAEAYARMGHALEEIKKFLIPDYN

Sam68 KH = Sam68 KH (UniProt Q07666); experiment: NMR 15N-1H HSQC CSP; settings: T-STAR KH: 10 mM Tris-HCl pH 7 (also given as pH 6.5, 50 mM NaCl, 30 C); Sam68 KH: 20 mM sodium phosphate pH 7.0, 50 mM NaCl, 20 C; about 0.2 mM protein; recombinant protein; residues 150-260; protein details: N-terminal His tag removed by TEV
[1] = intermediate exchange, higher affinity than AAAUAA
[2] = smaller CSP than 6mer, data not shown

Sequence | binding result (T-STAR KH) | further results
AAAAAAUAA |  | binding result (T-STAR KH; [1]): binds
AAAUA |  | binding result (T-STAR KH; [2]): binds more weakly
AAAUAA |  | binding result (Sam68 KH): binds
AAAUAU | binds | 
AAAUUU |  | binding result (Sam68 KH): binds; binding result (T-STAR KH; lower affinity than AAAUAA): binds more weakly
AAUAA |  | binding result (T-STAR KH; [2]): binds more weakly
AAUAAA | binds | 
AAUAUU | binds | 
AAUUUU | binds | 
AUUAAA | binds | 
AUUUUU | binds | 
UAAAAA | binds | 
UAAAAU | binds | binding result (Sam68 KH): binds
UAAAUA | binds | 
UAAAUU | binds | 
UUUAAA | binds | 
UUUAAAUAA |  | binding result (T-STAR KH; [1]): binds
UUUUUU [UUUUUU (polyU 6mer)] | binds | 
